Test results reported in PubChem BioAssay AID504467 (National Center for Advancing Translational Sciences (NCATS), 2011).
About 7,700 (2.3%) of roughly 330,000 compounds were called active. This list was built around the results that the source calls inconclusive (neither active nor inactive); the mix of calls is not that of the screen. Calls come from the whole dose curve; as a rule, active = well fitted inhibition curve with a large enough effect; inconclusive = small, poorly fitted or top-dose-only effect, or effect the other way; inactive = flat fitted curve, though single readings scatter. Potencies beside an inconclusive call are fits to weak or partial responses and may not hold up.

Assay: qHTS screen for small molecules that inhibit ELG1-dependent DNA repair in human embryonic kidney (HEK293T) cells expressing luciferase-tagged ELG1; note: nearly all actives have a fitted effect of over 55% in size
Settings: HEK293T ELG1-luciferase reporter, luminescence, 16 h, DNA damage induced by 5-fluorouridine; series mostly up to 46.1 µM
Summary of the method: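 Step one: seed 2,000 cells per well. Step two: pin-transfer compound or DMSO alongside 5-fluorouridine. Step three: incubate 16 hr, 37 °C, 5% CO2. Step four: add ONE-Glo, wait 30 min, read luminescence.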
Potency is the fitted concentration of half-maximal effect.

Row | SMILES | Potency
1 | Cc1ccc2[nH]c(=O)c(C3C(C#N)=C(N)Oc4c3ccc3cccnc43)cc2c1 (stereo unspecified) | inconclusive: 14.6 µM [inhibitor, single point]
2 | Oc1ccc(/C=N/Nc2nc(-c3ccc(Cl)cc3)cc(C(F)(F)F)n2)cc1 | active: 25.9 µM
3 | O=C(COc1ccc2ccccc2c1CN1CCOCC1)N1CCc2ccccc21 | inconclusive: 32.6 µM [inhibitor, partial curve, poor fit]
4 | CCCC(c1nnnn1C(C)(C)CC)N(Cc1ccco1)Cc1cc2ccc(OC)cc2[nH]c1=O (stereo unspecified) | inconclusive: 35.5 µM [inhibitor, single point]
5 | Cc1ccccc1NC(=S)N(CCN(C)C)C(C)c1ccco1 (stereo unspecified) | inconclusive: 16.4 µM [activator, partial curve, poor fit]
6 | COc1ccc(/C=N/NC(=O)c2cccnc2)cc1Cn1nc([N+](=O)[O-])c(Br)c1C | inconclusive: 10.3 µM [inhibitor, partial curve]
7 | Cc1cccc(CCNC(=O)c2cc(S(=O)(=O)N3CCCCC3)c[nH]2)c1 | inactive
8 | COCC(=O)Nc1nnc(-c2cccs2)s1 | inconclusive: 20.6 µM [activator, partial curve]
9 | Cc1ccc(C(=O)Cn2nnc3ccccc32)cc1[N+](=O)[O-] | inconclusive: 16.4 µM [activator, single point]
10 | COc1cc(C(C)=O)ccc1OCC(=O)N(CCC1=CCCCC1)c1c(N)n(Cc2ccccc2)c(=O)[nH]c1=O | inconclusive: 10.3 µM [inhibitor, single point]
11 | Cc1[nH]c2ccc(C(=O)O)cc2c1C | inconclusive: 32.6 µM [activator, partial curve, poor fit]
12 | c1ccc(CN2CCC(N=C3NN=C(c4ccc5c(c4)OCCO5)CS3)CC2)cc1 | inconclusive: 20.6 µM [activator, partial curve, poor fit]
13 | O=C(N/N=C/c1cn[nH]c1-c1ccc(Cl)cc1)c1ccc([N+](=O)[O-])cc1 | inactive
14 | S=C(NCC1CCCO1)c1ccc(Br)cc1 (stereo unspecified) | inconclusive: 35.5 µM [activator, single point]
15 | CN(CC(=O)Nc1ccc(Cl)cc1)S(=O)(=O)c1cccc2cccnc12 | inconclusive: 20.6 µM [inhibitor, single point]
16 | COc1cc(OC)cc(-c2c(C#Cc3ccsc3)c3cc(-c4cccc5[nH]ccc45)ccc3n2C)c1 | inactive
17 | O=C(NC1CCCCC1)C(c1ccccn1)N(C(=O)c1csnn1)c1ccccc1 (stereo unspecified) | inactive
18 | COc1ccccc1NC(=S)N1CCCCCC1 | inactive
19 | COc1ccc(NC(=O)C2CCN(S(=O)(=O)c3ccc(OC)c(OC)c3)CC2)cc1 | inactive
20 | CC1SCC(NC(=O)c2ccccc2Cl)CS1 (stereo unspecified) | inconclusive: 16.4 µM [activator, partial curve]
21 | Cc1nn(-c2ccccc2)c(C)c1/C=N/NC(=O)CSc1nc2ccccc2c(=O)n1-c1ccccc1 | active: 16.4 µM

Row | SMILES | Potency
22 | Oc1cc(NCc2ccc(F)cc2)cc2cccnc12 | inconclusive: 20.6 µM [inhibitor, partial curve, poor fit]
23 | CCCN(CCC)S(=O)(=O)c1ccc(C(=O)Nc2cccnc2)cc1 | inconclusive: 23.1 µM [inhibitor, single point]
24 | CC(C(=O)Nc1cc([N+](=O)[O-])ccc1Cl)N1CCN(c2ccc(O)cc2)CC1 (stereo unspecified) | inactive
25 | CCOc1ccc(NC(=O)c2cccc(NC(C)=O)c2)cc1S(=O)(=O)N1CCCC1 | inconclusive: 23.1 µM [inhibitor, single point]
26 | COc1cccc(C(=O)Nc2ccc(N3CCN(C(=O)c4cccs4)CC3)cc2)c1 | inconclusive: 6.51 µM [inhibitor, full curve]
27 | Cc1cc(C(=O)O/N=C(\N)c2ccncc2)ccc1[N+](=O)[O-] | inconclusive: 16.4 µM [activator, partial curve]
28 | O=C1/C(=C/c2cccc(Br)c2)SC(=S)N1CCC(=O)N(CCO)c1ccccc1 | inconclusive: 29.1 µM [inhibitor, single point]
29 | COc1ccc2cc(-c3ccn[nH]3)ccc2c1 | inconclusive: 6.51 µM [activator, partial curve]
30 | O=S1(=O)CCC(NC(=S)Nc2ccc3ccccc3c2)C1 (stereo unspecified) | inconclusive: 18.3 µM [activator, single point]
31 | CC(=O)c1ccc(OCc2cc(C(=O)N3CCCCC3c3cccnc3)no2)cc1 (stereo unspecified) | inconclusive: 13 µM [activator, partial curve]
32 | O=C(CSc1nc2ccccc2c(=O)n1-c1ccccc1F)NC1CCS(=O)(=O)C1 (stereo unspecified) | inconclusive: 14.6 µM [activator, partial curve, poor fit]
33 | CCCC(=O)Nc1ccccc1NC(=O)c1ccc(OCC)cc1 | inconclusive: 18.3 µM [inhibitor, partial curve, poor fit]
34 | Cc1cccc(-c2noc(CSc3ccccc3)n2)c1 | inconclusive: 16.4 µM [activator, partial curve]
35 | CC(CC(=O)NCc1ccccc1)C1CCCO1 (stereo unspecified) | inconclusive: 29.1 µM [activator, single point]
36 | Cc1ccc(C(=O)CSc2nc(C(C)C)nc3ccccc23)cc1 | inconclusive: 29.1 µM [inhibitor, single point]
37 | COc1cccc(-c2cn(C[C@H]3CC[C@@H]([C@@H]4CC[C@H](Cn5cc(-c6cccc(OC)c6)nn5)O4)O3)nn2)c1 | inconclusive: 5.8 µM [inhibitor, single point]
38 | CCOc1ccc(OCC(=O)N(CCC2=CCCCC2)c2c(N)n(Cc3ccccc3)c(=O)[nH]c2=O)cc1 | inconclusive: 29.1 µM [inhibitor, single point]
39 | Cc1ccc(NC(=O)CN(C)C(=O)c2cn(Cc3ccccc3)nc2-c2cccnc2)cc1 | inactive
40 | CC(C)n1ncc2c(C(=O)Nc3cccc(S(=O)(=O)N(C)C)c3)cc(C3CC3)nc21 | active: 20.6 µM
41 | O=C(COC(=O)c1ccc(Br)o1)NC12CC3CC(CC(C3)C1)C2 | inconclusive: 14.6 µM [activator, partial curve, poor fit]

An excerpt from above in order of length of the SMILES, rising.
Row | SMILES | Potency
33 | CCCC(=O)Nc1ccccc1NC(=O)c1ccc(OCC)cc1 | inconclusive: 18.3 µM [inhibitor, partial curve, poor fit]
28 | O=C1/C(=C/c2cccc(Br)c2)SC(=S)N1CCC(=O)N(CCO)c1ccccc1 | inconclusive: 29.1 µM [inhibitor, single point]
39 | Cc1ccc(NC(=O)CN(C)C(=O)c2cn(Cc3ccccc3)nc2-c2cccnc2)cc1 | inactive
